Among the data in PMC12475165 are binding values, retold here.

Sequences of proteins named here, by UniProt entry; tags and fusion partners are left off.
UniProt Q05322: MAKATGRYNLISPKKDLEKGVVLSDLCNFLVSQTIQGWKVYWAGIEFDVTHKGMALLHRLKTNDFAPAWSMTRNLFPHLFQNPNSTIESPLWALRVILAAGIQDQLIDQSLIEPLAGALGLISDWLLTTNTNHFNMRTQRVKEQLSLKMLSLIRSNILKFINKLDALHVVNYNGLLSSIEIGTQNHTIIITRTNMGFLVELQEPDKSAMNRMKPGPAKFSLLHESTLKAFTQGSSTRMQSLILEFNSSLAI
UniProt P37198: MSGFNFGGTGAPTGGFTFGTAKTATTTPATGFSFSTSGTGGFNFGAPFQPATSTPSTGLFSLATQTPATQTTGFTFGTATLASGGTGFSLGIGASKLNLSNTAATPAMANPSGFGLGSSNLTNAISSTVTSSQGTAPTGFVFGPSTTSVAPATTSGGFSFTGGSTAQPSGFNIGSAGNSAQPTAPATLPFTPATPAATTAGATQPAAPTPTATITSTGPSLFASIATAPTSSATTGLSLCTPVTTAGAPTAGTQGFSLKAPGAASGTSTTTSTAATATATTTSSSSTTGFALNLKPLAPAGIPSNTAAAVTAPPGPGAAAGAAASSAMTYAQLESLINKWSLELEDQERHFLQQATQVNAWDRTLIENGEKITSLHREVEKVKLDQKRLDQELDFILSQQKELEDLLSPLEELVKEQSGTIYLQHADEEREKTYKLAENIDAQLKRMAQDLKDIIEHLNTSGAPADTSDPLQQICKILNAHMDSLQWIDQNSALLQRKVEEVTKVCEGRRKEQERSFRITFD
UniProt P52294: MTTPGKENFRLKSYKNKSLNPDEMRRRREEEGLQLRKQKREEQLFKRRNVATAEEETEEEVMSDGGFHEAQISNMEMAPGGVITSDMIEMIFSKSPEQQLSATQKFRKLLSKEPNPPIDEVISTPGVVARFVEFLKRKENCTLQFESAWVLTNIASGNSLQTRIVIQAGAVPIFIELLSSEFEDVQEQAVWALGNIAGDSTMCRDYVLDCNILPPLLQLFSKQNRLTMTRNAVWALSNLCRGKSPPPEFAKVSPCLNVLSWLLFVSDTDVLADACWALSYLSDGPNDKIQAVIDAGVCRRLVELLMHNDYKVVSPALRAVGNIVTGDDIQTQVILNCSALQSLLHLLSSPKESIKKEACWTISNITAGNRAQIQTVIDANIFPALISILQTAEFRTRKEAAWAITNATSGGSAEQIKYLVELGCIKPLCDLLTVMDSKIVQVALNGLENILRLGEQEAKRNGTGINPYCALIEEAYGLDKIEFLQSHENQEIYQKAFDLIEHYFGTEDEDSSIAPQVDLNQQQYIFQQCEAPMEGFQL
UniProt O15131: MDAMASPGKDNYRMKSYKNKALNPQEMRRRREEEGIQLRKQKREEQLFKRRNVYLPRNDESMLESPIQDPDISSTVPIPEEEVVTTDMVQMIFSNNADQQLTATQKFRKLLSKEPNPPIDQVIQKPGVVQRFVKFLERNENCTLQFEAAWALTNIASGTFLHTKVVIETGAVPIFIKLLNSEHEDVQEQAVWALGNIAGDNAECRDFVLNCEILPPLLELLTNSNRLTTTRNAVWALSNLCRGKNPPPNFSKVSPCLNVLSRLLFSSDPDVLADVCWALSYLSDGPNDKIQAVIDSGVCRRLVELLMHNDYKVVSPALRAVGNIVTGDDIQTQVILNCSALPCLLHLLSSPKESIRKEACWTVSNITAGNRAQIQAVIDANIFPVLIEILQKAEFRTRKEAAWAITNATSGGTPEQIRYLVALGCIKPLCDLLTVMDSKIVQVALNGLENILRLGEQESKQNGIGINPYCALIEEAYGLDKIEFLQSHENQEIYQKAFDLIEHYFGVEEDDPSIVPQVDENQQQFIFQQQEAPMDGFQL
UniProt Q05323: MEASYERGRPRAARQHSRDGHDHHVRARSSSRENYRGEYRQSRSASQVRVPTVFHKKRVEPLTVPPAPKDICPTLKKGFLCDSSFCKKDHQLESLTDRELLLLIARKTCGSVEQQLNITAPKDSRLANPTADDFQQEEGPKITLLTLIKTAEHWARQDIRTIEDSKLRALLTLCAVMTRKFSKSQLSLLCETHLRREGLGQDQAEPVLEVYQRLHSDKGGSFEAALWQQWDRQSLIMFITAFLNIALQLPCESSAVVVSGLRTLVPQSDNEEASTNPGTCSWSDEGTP
UniProt Q9Y4F3: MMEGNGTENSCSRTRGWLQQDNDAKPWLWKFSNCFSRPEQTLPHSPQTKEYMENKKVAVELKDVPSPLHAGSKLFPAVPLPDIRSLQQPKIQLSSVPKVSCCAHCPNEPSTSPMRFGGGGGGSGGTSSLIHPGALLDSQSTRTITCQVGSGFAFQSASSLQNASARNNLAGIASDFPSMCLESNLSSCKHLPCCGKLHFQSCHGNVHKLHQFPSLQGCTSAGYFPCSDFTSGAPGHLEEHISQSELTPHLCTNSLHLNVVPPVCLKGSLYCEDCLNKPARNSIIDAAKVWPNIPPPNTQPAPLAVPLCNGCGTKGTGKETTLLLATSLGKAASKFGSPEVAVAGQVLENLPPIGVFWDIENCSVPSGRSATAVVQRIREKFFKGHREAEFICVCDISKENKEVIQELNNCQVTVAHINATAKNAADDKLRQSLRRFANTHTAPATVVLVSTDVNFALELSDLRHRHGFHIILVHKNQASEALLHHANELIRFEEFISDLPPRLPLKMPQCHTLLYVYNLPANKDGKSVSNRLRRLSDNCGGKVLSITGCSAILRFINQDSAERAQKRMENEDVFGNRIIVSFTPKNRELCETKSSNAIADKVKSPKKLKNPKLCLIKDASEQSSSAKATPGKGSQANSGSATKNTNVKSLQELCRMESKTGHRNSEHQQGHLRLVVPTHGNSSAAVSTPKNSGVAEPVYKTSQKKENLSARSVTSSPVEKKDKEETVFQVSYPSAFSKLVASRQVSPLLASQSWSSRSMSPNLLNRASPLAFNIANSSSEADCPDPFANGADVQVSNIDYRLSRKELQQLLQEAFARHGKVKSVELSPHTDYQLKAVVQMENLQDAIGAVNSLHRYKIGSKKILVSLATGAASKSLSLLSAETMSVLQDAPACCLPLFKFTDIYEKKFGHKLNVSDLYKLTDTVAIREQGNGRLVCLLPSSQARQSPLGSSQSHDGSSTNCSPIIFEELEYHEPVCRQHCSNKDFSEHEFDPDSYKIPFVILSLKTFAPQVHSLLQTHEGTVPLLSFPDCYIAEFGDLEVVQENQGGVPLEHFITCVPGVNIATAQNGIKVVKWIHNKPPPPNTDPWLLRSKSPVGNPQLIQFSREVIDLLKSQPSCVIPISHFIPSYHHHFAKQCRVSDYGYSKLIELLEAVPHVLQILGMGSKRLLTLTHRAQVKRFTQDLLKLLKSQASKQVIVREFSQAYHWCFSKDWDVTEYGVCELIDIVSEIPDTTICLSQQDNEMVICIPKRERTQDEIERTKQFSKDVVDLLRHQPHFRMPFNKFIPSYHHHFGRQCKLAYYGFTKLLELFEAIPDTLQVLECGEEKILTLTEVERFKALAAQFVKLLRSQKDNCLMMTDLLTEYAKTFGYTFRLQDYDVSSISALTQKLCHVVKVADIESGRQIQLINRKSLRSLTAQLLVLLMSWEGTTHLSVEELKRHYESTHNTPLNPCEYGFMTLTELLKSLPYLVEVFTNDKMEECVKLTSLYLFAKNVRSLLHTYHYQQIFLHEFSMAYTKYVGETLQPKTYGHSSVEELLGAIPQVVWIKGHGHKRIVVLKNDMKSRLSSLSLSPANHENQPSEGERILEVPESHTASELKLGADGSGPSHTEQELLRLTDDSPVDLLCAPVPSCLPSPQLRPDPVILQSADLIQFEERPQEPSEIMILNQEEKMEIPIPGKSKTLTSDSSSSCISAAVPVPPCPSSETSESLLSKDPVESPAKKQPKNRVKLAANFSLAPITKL
UniProt Q05127: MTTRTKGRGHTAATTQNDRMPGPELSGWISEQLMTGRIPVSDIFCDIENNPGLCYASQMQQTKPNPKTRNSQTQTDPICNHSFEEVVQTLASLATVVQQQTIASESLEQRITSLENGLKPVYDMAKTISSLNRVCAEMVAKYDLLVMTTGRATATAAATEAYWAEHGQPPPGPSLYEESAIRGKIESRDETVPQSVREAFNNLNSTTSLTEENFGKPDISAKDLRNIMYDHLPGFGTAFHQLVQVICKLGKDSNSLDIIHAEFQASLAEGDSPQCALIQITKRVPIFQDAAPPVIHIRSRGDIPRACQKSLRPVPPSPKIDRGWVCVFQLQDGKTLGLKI
UniProt Q8ND56: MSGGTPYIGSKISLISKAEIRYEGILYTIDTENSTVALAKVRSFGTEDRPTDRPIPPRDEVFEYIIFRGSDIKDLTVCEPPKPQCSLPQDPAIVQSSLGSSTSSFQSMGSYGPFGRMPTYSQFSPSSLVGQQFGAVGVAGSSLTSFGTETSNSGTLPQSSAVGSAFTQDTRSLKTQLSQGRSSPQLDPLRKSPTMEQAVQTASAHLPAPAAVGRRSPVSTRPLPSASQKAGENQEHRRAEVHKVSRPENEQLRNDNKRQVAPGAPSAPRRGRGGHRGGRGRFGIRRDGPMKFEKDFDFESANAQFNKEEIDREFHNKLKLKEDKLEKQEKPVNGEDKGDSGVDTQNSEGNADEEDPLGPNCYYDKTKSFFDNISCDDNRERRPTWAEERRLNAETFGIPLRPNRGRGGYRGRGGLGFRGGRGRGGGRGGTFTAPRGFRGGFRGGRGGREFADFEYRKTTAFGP
UniProt Q8IZH2: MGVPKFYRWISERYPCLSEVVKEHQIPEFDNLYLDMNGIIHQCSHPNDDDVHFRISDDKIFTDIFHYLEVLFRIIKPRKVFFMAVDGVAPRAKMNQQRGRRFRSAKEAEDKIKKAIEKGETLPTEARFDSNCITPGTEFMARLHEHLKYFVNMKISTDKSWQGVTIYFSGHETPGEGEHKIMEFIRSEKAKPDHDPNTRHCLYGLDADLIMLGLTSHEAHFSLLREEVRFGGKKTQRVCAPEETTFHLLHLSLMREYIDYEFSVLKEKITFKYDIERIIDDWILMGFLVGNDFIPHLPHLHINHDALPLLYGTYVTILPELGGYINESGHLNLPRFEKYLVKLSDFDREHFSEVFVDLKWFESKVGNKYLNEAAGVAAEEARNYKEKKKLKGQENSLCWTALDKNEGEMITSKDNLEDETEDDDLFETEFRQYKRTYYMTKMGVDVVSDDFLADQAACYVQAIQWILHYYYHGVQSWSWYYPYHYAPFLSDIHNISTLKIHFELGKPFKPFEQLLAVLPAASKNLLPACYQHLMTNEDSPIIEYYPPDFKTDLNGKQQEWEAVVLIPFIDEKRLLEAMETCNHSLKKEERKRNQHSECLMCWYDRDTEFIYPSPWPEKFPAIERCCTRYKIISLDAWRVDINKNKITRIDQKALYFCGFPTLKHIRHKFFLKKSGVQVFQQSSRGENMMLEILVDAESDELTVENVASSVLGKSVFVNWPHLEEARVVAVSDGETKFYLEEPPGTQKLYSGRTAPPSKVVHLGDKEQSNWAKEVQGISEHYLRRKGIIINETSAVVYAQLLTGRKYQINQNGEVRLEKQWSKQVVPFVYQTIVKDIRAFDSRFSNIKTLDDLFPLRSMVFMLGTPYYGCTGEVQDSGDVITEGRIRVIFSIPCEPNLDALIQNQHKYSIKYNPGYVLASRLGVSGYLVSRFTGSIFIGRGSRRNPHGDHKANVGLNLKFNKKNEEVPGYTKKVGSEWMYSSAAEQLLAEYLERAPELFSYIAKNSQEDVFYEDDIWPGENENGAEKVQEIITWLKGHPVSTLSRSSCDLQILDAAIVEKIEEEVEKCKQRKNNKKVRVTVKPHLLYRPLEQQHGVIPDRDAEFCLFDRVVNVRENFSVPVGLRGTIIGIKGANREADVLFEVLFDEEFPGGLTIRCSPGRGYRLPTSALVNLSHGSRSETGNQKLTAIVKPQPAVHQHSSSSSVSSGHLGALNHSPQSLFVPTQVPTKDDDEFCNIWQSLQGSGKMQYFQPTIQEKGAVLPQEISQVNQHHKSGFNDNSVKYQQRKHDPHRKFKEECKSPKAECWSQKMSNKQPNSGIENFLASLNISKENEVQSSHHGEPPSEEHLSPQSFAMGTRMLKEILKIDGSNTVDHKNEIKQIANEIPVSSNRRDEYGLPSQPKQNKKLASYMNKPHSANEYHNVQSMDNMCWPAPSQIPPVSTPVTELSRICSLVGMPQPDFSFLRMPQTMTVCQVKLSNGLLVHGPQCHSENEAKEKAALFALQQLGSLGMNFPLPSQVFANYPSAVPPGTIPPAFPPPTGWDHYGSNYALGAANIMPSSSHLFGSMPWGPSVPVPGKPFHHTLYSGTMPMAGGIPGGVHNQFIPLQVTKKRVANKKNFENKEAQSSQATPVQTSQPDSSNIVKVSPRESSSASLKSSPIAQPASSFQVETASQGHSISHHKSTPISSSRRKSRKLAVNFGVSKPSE
UniProt P63167: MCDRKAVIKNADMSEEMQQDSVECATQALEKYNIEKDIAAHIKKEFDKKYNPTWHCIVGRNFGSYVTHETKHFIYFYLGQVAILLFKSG

No constants are given. Whether binding was seen depends on the method and setting. Binding seen in cells or lysates may run through a third protein. These calls come from enrichment with a bait or labelling near it, and not all partners need be listed.

The first test concerns the target BioID2-tagged EBOV VP24 (N- and C-terminal tagged constructs) (Ebola virus (EBOV)) (UniProt Q05322). The test can be described thus: proximity labelling.
On to “nucleoporin protein NUP62 (from UniProt P37198 1-522)”, for which the binding result is reported as “binds”.

Turning to “karyopherin protein KPNA1 (from UniProt P52294 1-538)”, the binding entry was “binds”.

“karyopherin protein KPNA5 (from UniProt O15131 1-539)”: the binding result is “binds”.

In the case of “POLR3C, an RNA polymerase III subunit (from UniProt Q9BUI4 1-534)”, the binding result is “binds”.

With “karyopherin protein KPNA6 (from UniProt O60684 1-536)”, the binding result was “binds”.

Another test has as its target N-terminal BioID2-tagged EBOV VP30 (Ebola virus (EBOV)) (UniProt Q05323). The experiment in a line: proximity labelling.
In the case of SRPK2 (from UniProt P78362 1-688), the binding result is “binds”.

Turning to RBBP6 (from UniProt Q7Z6E9 1-1792), the binding result was “binds”.

The next test addresses BioID2-tagged EBOV NP (N- and C-terminal tagged constructs) (Ebola virus (EBOV)) (UniProt P18272). The experiment in a line: proximity labelling.
On to MARF1 (from UniProt Q9Y4F3 1-1742), for which the binding entry was “binds”.

Regarding “protein phosphatase 2 regulatory subunit B alpha (PPP2R2A) (from UniProt P63151 1-447)”, the binding result is reported as “binds”.

Another test addresses N-terminal BioID2-tagged EBOV VP35 (Ebola virus (EBOV)) (UniProt Q05127). The test can be described thus: proximity labelling.
Consider LSM14A (from UniProt Q8ND56 1-463), for which the binding entry is “binds”.

As for XRN1 (from UniProt Q8IZH2 1-1706), the binding entry was “binds”.

In the case of “dynein light chain LC8-type 1 (DYNLL1) (from UniProt P63167 1-89)”, the binding result is reported as “binds”.

With LSM14B (from UniProt Q9BX40 1-385), the binding result is “binds”.

On to MARF1 (from UniProt Q9Y4F3 1-1742), for which the binding entry is “binds”.
